This data set in a line: in vitro. Particulars: PAMPA. (In general: The PAMPA barrier holds no transporters, so it reflects passive diffusion.)

As for `CC(C)NCC(O)COc1ccc(CC(N)=O)cc1` (stereo not shown) [Atenolol], the Papp – broadly, the rate of passage across a membrane or cell layer, normalised by area and donor concentration – at 6 h, 25 μg/mL was determined as 0.45 ± 0.25 ×10⁻⁶ cm/s.
